These are yes or no findings as the source states them, for the method shown. Some entries that bind do so weakly or less than the wild type.
How the values were obtained:
[1] = molecular target: T1, zebrafish aplnra (zebrafish) (UniProt Q7SZP9); test: AP-ELA cell-surface binding to transfected HEK293T cells
T1 sequence (looked up): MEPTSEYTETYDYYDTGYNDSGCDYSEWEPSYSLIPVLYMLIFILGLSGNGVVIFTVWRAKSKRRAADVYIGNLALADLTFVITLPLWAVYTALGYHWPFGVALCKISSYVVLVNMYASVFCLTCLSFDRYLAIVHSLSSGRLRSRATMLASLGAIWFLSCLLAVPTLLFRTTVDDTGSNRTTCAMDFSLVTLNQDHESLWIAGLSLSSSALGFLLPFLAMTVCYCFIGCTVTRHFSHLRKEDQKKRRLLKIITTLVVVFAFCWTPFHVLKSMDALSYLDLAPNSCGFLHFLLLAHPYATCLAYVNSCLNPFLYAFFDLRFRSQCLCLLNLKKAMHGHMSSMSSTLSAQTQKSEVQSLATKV

Protein sequences, listed by entry. Tags and fused reporters are not part of them.
UniProt P61073: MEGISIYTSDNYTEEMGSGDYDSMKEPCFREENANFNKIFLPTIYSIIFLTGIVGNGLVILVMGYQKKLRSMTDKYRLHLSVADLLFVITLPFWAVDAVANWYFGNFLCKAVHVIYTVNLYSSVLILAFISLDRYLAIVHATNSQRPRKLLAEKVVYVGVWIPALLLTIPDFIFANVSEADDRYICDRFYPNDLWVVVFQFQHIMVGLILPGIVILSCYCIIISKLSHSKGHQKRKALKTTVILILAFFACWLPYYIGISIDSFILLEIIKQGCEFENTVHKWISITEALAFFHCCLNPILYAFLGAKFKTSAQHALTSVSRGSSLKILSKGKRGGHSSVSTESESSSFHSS

[2] = molecular target: T1, zebrafish aplnra (zebrafish); test: AP-ELA cell-surface binding to transfected 293T cells (FIG. 7G)
[3] = molecular target: CXCR4 (UniProt P61073); test: ELA-AP conditioned medium on 293T cells transfected with receptor ORFs (FIG. 20A)
[4] = molecular target: CXCR4 (UniProt P61073); test: ELA-AP conditioned medium on 293T cells transfected with receptor ORFs, OD at 495 nm

Measured: binding

QRPVNLTMRRKLRKHNCLQRRCMPLHSRVPFP (peptide, not shown: large carriers) [recombinant ELA conjugated to Alkaline-Phosphatase (AP-ELA)]
binds: all assays above

Source: patent US20160311880A1
